Data as given in publication doi:10.1101/2020.12.13.422588.
These are yes or no findings as the source states them, for the method shown. Some entries that bind do so weakly or less than the wild type.

Assays:
Test in all cases: two-hybrid
[1] = molecular target: T1, full-length SpbK (Bacillus subtilis) (UniProt P96648)
T1 sequence: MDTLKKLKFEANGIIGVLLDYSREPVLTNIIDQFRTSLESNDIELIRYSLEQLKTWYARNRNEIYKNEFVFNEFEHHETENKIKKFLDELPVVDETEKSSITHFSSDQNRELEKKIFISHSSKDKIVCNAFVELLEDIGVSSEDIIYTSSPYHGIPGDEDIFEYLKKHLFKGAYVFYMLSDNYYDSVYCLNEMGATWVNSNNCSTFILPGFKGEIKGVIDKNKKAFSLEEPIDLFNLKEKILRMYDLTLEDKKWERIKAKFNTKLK

[2] = molecular target: T2, SpbK amino acids 97-266 (TIR domain) (Bacillus subtilis) (UniProt P96648)
T2 sequence: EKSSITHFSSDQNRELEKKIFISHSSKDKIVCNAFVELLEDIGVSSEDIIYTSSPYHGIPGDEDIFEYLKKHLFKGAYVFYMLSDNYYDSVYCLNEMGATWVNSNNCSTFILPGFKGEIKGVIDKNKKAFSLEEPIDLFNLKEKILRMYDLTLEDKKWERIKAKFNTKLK

[3] = molecular target: SpbK amino acids 1-104 (N-terminus) (Bacillus subtilis) (UniProt P96648)

B1: full-length SpbK (protein, UniProt P96648 1-266)
chain: MDTLKKLKFEANGIIGVLLDYSREPVLTNIIDQFRTSLESNDIELIRYSLEQLKTWYARNRNEIYKNEFVFNEFEHHETENKIKKFLDELPVVDETEKSSITHFSSDQNRELEKKIFISHSSKDKIVCNAFVELLEDIGVSSEDIIYTSSPYHGIPGDEDIFEYLKKHLFKGAYVFYMLSDNYYDSVYCLNEMGATWVNSNNCSTFILPGFKGEIKGVIDKNKKAFSLEEPIDLFNLKEKILRMYDLTLEDKKWERIKAKFNTKLK
binding [1]: binds

B2: SpbK amino acids 97-266 (TIR domain) (domain or fragment, UniProt P96648 97-266)
chain: EKSSITHFSSDQNRELEKKIFISHSSKDKIVCNAFVELLEDIGVSSEDIIYTSSPYHGIPGDEDIFEYLKKHLFKGAYVFYMLSDNYYDSVYCLNEMGATWVNSNNCSTFILPGFKGEIKGVIDKNKKAFSLEEPIDLFNLKEKILRMYDLTLEDKKWERIKAKFNTKLK
binding [2]: binds
binding [1]: binds

B3: SpbK amino acids 1-104 (N-terminus) (domain or fragment, UniProt P96648 1-104)
chain: MDTLKKLKFEANGIIGVLLDYSREPVLTNIIDQFRTSLESNDIELIRYSLEQLKTWYARNRNEIYKNEFVFNEFEHHETENKIKKFLDELPVVDETEKSSITHF
binding [3]: no binding
binding [2]: no binding
binding [1]: no binding

B4: YonE (protein, UniProt O31953 1-506)
chain: MVTLNKVDIESEEYKQMLNDYSTYTSTFASGFISNMFSNGIVTEIEAEQLKNYFSNPDEFQEEIEDLAQYFYISTAEIHQLFELIEALPTLNYKIDSFNKVKSSDKHISLLNKSLHKVKHKRLTRDLLKQVATAGTLVGIWLGDAKSPYPFIFDEIKYVFPSFRRNGDWVCVVDMELFTKYKDDQRNELLKSLSPYIKQSDYENFMKDREKYRFKELPQERTFPLRTGTLKRNQGLGTSWVTPGLYDVLHKKKLKDVERSIANKIINAVAVLTIGTDKGNGEYTNMKLPKAVKQKIHGGVKTALEKNQKDGVTVVSIPDFADINFPDVKADGLDGAKFDHINSDIQSAYGLSGSLLNGDGGNYATSSLNLDTFYKRIGVLMEDIEQEVYQKLFNLVLPAAQKDNYYMNYDKDKPLTLKEKMDILIKLNDKGWSIKHVVDNLAGVSWESYLEQTLYETEELKLQEKIRPYQTSYTFTGNEVGRPNEGNKNNDNTVKSATSNGNDNPI
binding [1]: no binding
